# Cleaved PARP in drug-treated melanoma cells

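Human melanoma cell lines in 1,536-well plates were treated with two drugs together for 72 h, then fixed, stained and imaged. The read-out is the fraction of cleaved-PARP-positive nuclei, in % of that fraction in the DMSO control; 200 means twice the control level of this apoptosis marker. Concentrations were fixed for each drug; these are the higher of two levels. The file gives one value for each pair and line, without errors, so small differences may be noise. The marker varies much from line to line, for technical or biological reasons.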 An unselected part of the screen is shown. A dash means that no value is listed here.

Drug key:
enzastaurin (4 µM): Cn1cc(C2=C(c3cn(C4CCN(Cc5ccccn5)CC4)c4ccccc34)C(=O)NC2=O)c2ccccc21
bortezomib (0.005 µM): CC(C)C[C@H](NC(=O)[C@H](Cc1ccccc1)NC(=O)c1cnccn1)B(O)O
VX-702 (2 µM): NC(=O)c1ccc(N(C(N)=O)c2c(F)cccc2F)nc1-c1ccc(F)cc1F
cisplatin (8 µM): N.N.[Cl][Pt][Cl]
GW0742 (10 µM): Cc1cc(SCc2sc(-c3ccc(C(F)(F)F)c(F)c3)nc2C)ccc1OCC(=O)O
BMS-536924 (1 µM): Cc1cc(N2CCOCC2)cc2[nH]c(-c3c(NC[C@@H](O)c4cccc(Cl)c4)cc[nH]c3=O)nc12
JZL184 (5 µM): O=C(Oc1ccc([N+](=O)[O-])cc1)N1CCC(C(O)(c2ccc3c(c2)OCO3)c2ccc3c(c2)OCO3)CC1
erlotinib (4 µM): C#Cc1cccc(Nc2ncnc3cc(OCCOC)c(OCCOC)cc23)c1
CX-4945 (2 µM): O=C(O)c1ccc2c(c1)nc(Nc1cccc(Cl)c1)c1ccncc12
crizotinib (1 µM): C[C@@H](Oc1cc(-c2cnn(C3CCNCC3)c2)cnc1N)c1c(Cl)ccc(F)c1Cl
YM155 (0.002 µM): COCC[n+]1c2c(n(Cc3cnccn3)c1C)C(=O)c1ccccc1C2=O

Combination	LOX IMVI	G-361	WM3619	WM115	A101D	RPMI-7951	SK-MEL-28	A375	COLO 792	SK-MEL-30	RVH-421	A2058	MZ2-MEL
crizotinib + BMS-536924	70.1	96.4	172	242	188	113	300	-	258	187	120	157	125
cisplatin + GW0742	113	124	183	89.5	38.4	91.6	36.6	304	104	89.1	102	62.8	157
enzastaurin + erlotinib	66.9	143	96.7	205	262	373	489	128	181	68.9	97.0	272	96.1
BMS-536924 + GW0742	53.8	106	153	95.6	97.3	73.5	107	114	206	87.9	50.3	101	154
GW0742 + bortezomib	405	51200	5040	196	340	1040	602	56.5	519	767	1100	2310	-
crizotinib + CX-4945	132	151	110	1110	364	233	96.5	144	243	164	79.8	201	101
VX-702 + enzastaurin	171	171	72.1	89.5	137	480	362	181	71.0	96.3	172	183	83.6
erlotinib + YM155	235	313	166	763	112	469	415	96.1	430	154	61.8	1630	476
VX-702 + BMS-536924	118	141	89.5	42.4	52.2	68.1	147	-	254	66.3	153	68.9	129
GW0742 + VX-702	77.4	64.2	102	92.5	34.7	84.5	242	85.0	123	131	186	93.1	21.7
erlotinib + BMS-536924	198	261	127	139	206	121	146	-	1170	320	74.2	221	182
erlotinib + CX-4945	54.6	317	179	371	125	193	74.0	559	876	164	340	283	-
cisplatin + VX-702	44.3	95.3	98.0	102	87.4	109	115	204	165	112	445	76.3	153
JZL184 + crizotinib	47.3	98.9	80.7	213	85.3	82.5	122	98.1	62.2	102	239	253	72.8
bortezomib + enzastaurin	354	15400	1790	3870	1060	1850	183	348	766	1590	2710	2340	25600
cisplatin + erlotinib	141	152	108	231	356	66.1	134	333	253	84.3	56.4	113	241
BMS-536924 + bortezomib	256	17500	1550	966	1760	1310	57.8	-	489	951	868	1480	21100
CX-4945 + VX-702	305	96.9	128	79.8	89.7	137	30.9	45.4	189	56.7	65.9	170	126
CX-4945 + GW0742	88.9	225	129	93.3	210	100	136	244	52.1	217	169	158	183
erlotinib + VX-702	71.5	284	139	316	188	212	62.2	49.5	272	78.5	122	178	25.0
JZL184 + bortezomib	169	15100	2190	527	1350	1250	176	170	158	822	1850	2860	19600

Repeated from the top, 2 entries:

| Combination | LOX IMVI | G-361 | WM3619 | WM115 | A101D | RPMI-7951 | SK-MEL-28 | A375 | COLO 792 | SK-MEL-30 | RVH-421 | A2058 | MZ2-MEL |
|---|---|---|---|---|---|---|---|---|---|---|---|---|---|
| crizotinib + BMS-536924 | 70.1 | 96.4 | 172 | 242 | 188 | 113 | 300 | - | 258 | 187 | 120 | 157 | 125 |
| cisplatin + GW0742 | 113 | 124 | 183 | 89.5 | 38.4 | 91.6 | 36.6 | 304 | 104 | 89.1 | 102 | 62.8 | 157 |

From a melanoma drug combination screen (doi:10.1371/journal.pone.0140310); values rounded.